PubChem BioAssay AID652272 – Drosophila RNAi Screening Center – 2013

Screen: 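Genome-wide knock-down search for components of Hedgehog signalling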 (primary screen)
Cell system: Drosophila clone 8 (Cl8) cells
Reagent: long dsRNA against Drosophila genes
Read-out: 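Plate reader light from a firefly reporter under a ptc promoter fragment that responds to Hedgehog, with Renilla light as transfection reference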
Direction: firefly Hh reporter signal: higher = more ptc reporter light; Renilla reference signal: higher = more Renilla control light
Active means: 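Called a hit if the two-replicate mean z-score lies below -2 or above +3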
Meaning of the calls: active = hit: reporter lowered or raised; inactive = not a hit
The deposit covers about 21,000 reagents; shown is an unselected part of those that have a named target and a result. Of all reagents, 503 (2.4%) are marked active. 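Raw plate light values, not normalised; calls rest on replicate z-scores that were not deposited; hits include reporter decreases as well as increases.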 Entries without a mark were called inactive. Reagents against one gene are numbered here. A plus sign joins genes that one reagent is predicted to hit. Not stated in the record: the amount of reagent, the time to read-out.

no.	gene	reagent	firefly Hh reporter signal, replicate 1	firefly Hh reporter signal, replicate 2	firefly Hh reporter signal, replicate 3	Renilla reference signal, replicate 1	Renilla reference signal, replicate 2
1	CG13018 (GeneID 50224)	1	63299	65846		1885	4017
2	MED8 (GeneID 37305)	1	95338	59328		2229	3524
3	CG15172 (GeneID 35167)	1	92573	47778		2400	4314
4	l(2)09851 (GeneID 46662)	1	1.06e5	97024		1981	7552
5	CG34234 + Dh44-R2	1	71472	58192		3069	2312
6	CG6149 (GeneID 39277)	1	52016	35457	47612	2736	3209
7	eg (GeneID 40428)	1	88038	90586		2901	5174
8	CG7378 (GeneID 32888)	1	56066	1.51e5		1474	6593
9	ari-2 (GeneID 37542)	1	1.08e5	45798		2816	2829
10	CG14294 (GeneID 42262)	1	7.40e5	1.50e5		34476	4313
11	Pgcl (GeneID 30984)	1	93168	3.25e5		2144	12352
12	SdhB (GeneID 35590)	1	1.33e5	1.30e5		5431	5020
13	CG15347 (GeneID 31779)	1	1.25e5	3.30e5		3613	12541
14	CG13046 (GeneID 39791)	1	1.17e5			5356	3121
15	CG14565 (GeneID 40423)	1	1.16e5	1.25e5		4236	13562
16	SCAP (GeneID 35529)	1	1.01e5	1.14e5		2150	7756
17	SCAP (GeneID 35529)	2	97959	72186		1654	6562
18	CG13029 (GeneID 39886)	1	1.80e5			1960	5341
19	Nopp140 (GeneID 40433)	1	1.14e5	1.62e5		4765	28809
20	gl (GeneID 42210)	1	6.71e5	1.43e5		34868	3708
21	CG31102 (GeneID 326118)	1	7.42e5	1.95e5		36359	5794
22	Akr1B (GeneID 39304)	1	91234	71413		4468	3244
23	Set8 (GeneID 41743)	1	1.17e5	61603		4680	2786

3 entries already listed, ordered by “firefly Hh reporter signal, replicate 2”, low to high.
gene	reagent	firefly Hh reporter signal, replicate 1	firefly Hh reporter signal, replicate 2	firefly Hh reporter signal, replicate 3	Renilla reference signal, replicate 1	Renilla reference signal, replicate 2
Set8 (GeneID 41743)	1	1.17e5	61603		4680	2786
Akr1B (GeneID 39304)	1	91234	71413		4468	3244
CG31102 (GeneID 326118)	1	7.42e5	1.95e5		36359	5794
